Data reported in paper PMC4441004, “Functional Characterization and Categorization of Missense Mutations that Cause Methylmalonyl‐CoA Mutase (MUT) Deficiency” (Human Mutation, 2014).
No constants are given. Whether binding was seen depends on the method and setting. Some binding calls cover weakened binding; strength is not graded here.

Target: Methylmalonyl-CoA mutase (MUT), wild type (human) (UniProt P22033)
Experiment: SEC; Superdex 200 in the large-scale purification from E. coli; retention volumes of the mutants compared with wt MUT; data not shown; both purified

binding: binds
B1: Methylmalonyl-CoA mutase (MUT), wild type (enzyme, UniProt P22033 33-750)
chain: LHQQQPLHPEWAALAKKQLKGKNPEDLIWHTPEGISIKPLYSKRDTMDLPEELPGVKPFTRGPYPTMYTFRPWTIRQYAGFSTVEESNKFYKDNIKAGQQGLSVAFDLATHRGYDSDNPRVRGDVGMAGVAIDTVEDTKILFDGIPLEKMSVSMTMNGAVIPVLANFIVTGEEQGVPKEKLTGTIQNDILKEFMVRNTYIFPPEPSMKIIADIFEYTAKHMPKFNSISISGYHMQEAGADAILELAYTLADGLEYSRTGLQAGLTIDEFAPRLSFFWGIGMNFYMEIAKMRAGRRLWAHLIEKMFQPKNSKSLLLRAHCQTSGWSLTEQDPYNNIVRTAIEAMAAVFGGTQSLHTNSFDEALGLPTVKSARIARNTQIIIQEESGIPKVADPWGGSYMMECLTNDVYDAALKLINEIEEMGGMAKAVAEGIPKLRIEECAARRQARIDSGSEVIVGVNKYQLEKEDAVEVLAIDNTSVRNRQIEKLKKIKSSRDQALAERCLAALTECAASGDGNILALAVDASRARCTVGEITDALKKVFGEHKANDRMVSGAYRQEFGESKEITSAIKRVHKFMEREGRRPRLLVAKMGQDGHDRGAKVIATGFADLGFDVDIGPLFQTPREVAQQAVDADVHAVGISTLAAGHKTLVPELIKELNSLGRPDILVMCGGVIPPQDYEFLFEVGVSNVFGPGTRIPKAAVQVLDDIEKCLEKKQQSV
